# PubChem BioAssay AID1259405, NCATS – 2018
# Aim: 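Knock-downs that lift recombinant protein yield in hamster ovary cells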 (primary screen)
# Cells: Chinese hamster CHO-K1 ovary cells with stable secreted eGFP expression
# Knock-down reagent: single siRNA against mouse genes, 0.8 pmol siRNA per well (2 µl of 400 nM stock)
# Time to read-out: 3 days
# Measurement: 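Percent of the per-plate non-targeting control median for intracellular GFP per well by laser scanning cytometry and for cell viability by ATP luminescence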
# Scale: GFP, % of control: higher = more GFP per well, higher productivity; viability (ATP), % of control: higher = more viable cells (more ATP)
# Active means: 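Called active when intracellular GFP, relative to negative control, is at or above 120%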
# In all, the deposit lists about 50,000 reagents; below is a part drawn at random. In the full data, about 4,000 (8%) got an active call. 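Mouse siRNA library applied to hamster cells; one well for each siRNA.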 A number with no mark means an inactive call. The numbers tell different reagents against one gene apart.
gene symbol,reagent,"GFP, % of control","viability (ATP), % of control"
Fgf7,1,61.8,78.4
Fgf7,2,59.7,54.4
Fgf7,3,36.4,53.4
Fbf1,1,66.7,68.8
Fbf1,2,93,85.6
Fbf1,3,92.3,65.2
Fdft1,1,118,76.4
Fdft1,2,136 (active),164
Fdft1,3,96,89.3
Gabrb2,1,85.3,97.1
Gabrb2,2,57.8,79
Gabrb2,3,92.4,112
Gabrb2,4,62.4,76.7
Gabrb2,5,79.8,95.1
Gabrb2,6,118,131
Bud13,1,85.9,88.4
Bud13,2,106,65.8
Bud13,3,126 (active),95
Tal1,1,47,72.7
Tal1,2,55.5,64.6
Tal1,3,74.1,76.8
Zc2hc1a,1,23.4,24.4
Zc2hc1a,2,86.4,76.7
Zc2hc1a,3,83.1,105
Crisp3,1,73.2,79.2
Crisp3,2,48.4,38
Crisp3,3,74.3,127
Mpz,1,54,83.9
Mpz,2,62.5,60.1
Trim33,1,73.5,94.2
Trim33,2,48.3,68.8
Mapk13,1,53.5,64.3
Zfand6,1,49,74.1
Zfand6,2,61.8,82.1
Cnot6l,1,70.9,62
Cnot6l,2,53.4,41.8
Cnot6l,3,90.4,118
Cryl1,1,155 (active),96.6
Cryl1,2,62.5,85.9
Cryl1,3,55.9,43.8
Or8b56,1,72.7,87.7
Or8b56,2,93.7,39
Or8b56,3,97.3,83.4
Epgn,1,93.2,93.1
Epgn,2,22.6,34.8
Epgn,3,51.3,58.2
Brox,1,89.1,94.1
Brox,2,108,96.9
Brox,3,72.2,96
Taok1,1,98.5,82.2
Dynlrb2,1,60.8,46.8
Dynlrb2,2,89.3,98.3
Tmem119,1,88.5,92.8
Tmem119,2,77.8,76.1
Tmem119,3,95.8,139
Lrrc40,1,8.41,23.6
Lrrc40,2,140 (active),72.3
Lrrc40,3,62.6,65.3
Nup88,1,40,21.3
Nup88,2,69.1,81.1
Nup88,3,63.8,45.6
Gnb4,1,81.6,111
Gnb4,2,78.7,77.9
Gnb4,3,79.9,72.6
Or6c1,1,90.5,81.6
Or6c1,2,37.4,22.6
Or6c1,3,88.2,64.7
Eif3i,1,77.8,80.7
Eif3i,2,69.7,69.6
Eif3i,3,137 (active),132
P2ry1,1,52.7,28.5
P2ry1,2,97.1,59.5
P2ry1,3,82.2,53.8
Bfsp1,1,88.9,68.7
Bfsp1,2,98,97
Ppa1,1,114,109
Ppa1,2,57.1,75.5
Ppa1,3,74.2,93.8
Rhoq,1,119,105
Rhoq,2,92,94.9
Rhoq,3,73,91.2
Tnnt3,1,76.2,63.5
Tnnt3,2,66.3,57.6
Tnnt3,3,69.9,77.8
Atp4b,1,91.3,89.2
Atp4b,2,115,93.2
Atp4b,3,76.7,56.3
Taco1,1,94.1,98.8
Taco1,2,52,48.2
Taco1,3,104,89.4
Cox7b,1,124 (active),124
Cox7b,2,94.2,54.8
Art4,1,35.4,35.5
Art4,2,59.2,71.8
Art4,3,86.5,93.2
Zfp998,1,18.9,21.7
Zfp998,2,88.3,99.5
Zfp998,3,67.4,51.1
Tmem86a,1,87.7,78.1
Tmem86a,2,115,111
Tmem86a,3,86.9,76
Rps16,1,71.7,65.6
Rps16,2,53.1,22.8
Rps16,3,77.3,71.4
Krt77,1,56.8,58.5
Krt77,2,115,40.7
Bcs1l,1,137 (active),78.2
Bcs1l,2,76.4,80.3
Bcs1l,3,87.9,104

In a second layout: results already given
gene symbol	reagent	GFP, % of control	viability (ATP), % of control
Gnb4	1	81.6	111
Gnb4	2	78.7	77.9
Gnb4	3	79.9	72.6
Or6c1	1	90.5	81.6
Or6c1	2	37.4	22.6
Or6c1	3	88.2	64.7
Eif3i	1	77.8	80.7
Eif3i	2	69.7	69.6
